The list shows only some results of the screen, not a fair sample: it gathers tests that were run many times, whatever their T/C, doses with no T/C, and many T/C values between a quarter and a half above the control. Other doses and runs of a compound stand elsewhere. T/C: endpoint of the treated group in % of that of the vehicle group. Some entries give survivors of the animals treated and no T/C: the source holds a T/C of zero for them, seemingly a mark for toxic or unscored doses. Some doses without a T/C left all or most animals alive at the check, yet need not have been tolerated: the source hardly ever lists a survival T/C far under the control, and the zero likely stands for such cases as well. Survivors were counted at the toxicity check, usually on the fifth day, unless a day is given; later deaths do not show. Schedules are NCI's codes, read here as Q, the interval in days (D) or hours (H), X, the number of doses. Counts like (3×) say how often a value occurs here. Some doses were run more than once; their values stand side by side, smallest first. For survival time, the PubChem record calls one and a half times the control and up active, and a quarter to a half above the control has no call in these data; cut-offs in other NCI protocols can differ. Some T/C values carry the count of animals alive at the toxicity check (mostly the fifth day); without a count, all were alive then.

For this test, the system named is P388 leukemia ip, CD2F1 mice, survival T/C. Nature of the test: NCI In Vivo Anticancer Drug Screen. Data for tumor model P388 Leukemia (intraperitoneal) in CD2F1 (CDF1) mice. The conditions noted are these: T/C endpoint: median survival time, higher T/C = longer survival.
Setting [1] is: dose: 120.0 mg/kg/injection, schedule: Q01DX005 (ip), vehicle: saline.
[2] abbreviates: dose: 240.0 mg/kg/injection, schedule: Q01DX005 (ip), vehicle: saline.
Setting [3] is: dose: 27.0 mg/kg/injection, schedule: Q01DX005 (ip), vehicle: saline with Tween-80.
Where [4] appears, read: dose: 50.0 mg/kg/injection, schedule: Q01DX009 (ip), vehicle: saline with Tween-80.

As for `C1CCC(C2CCCC[N-]2)[N-]C1.[Cl][Ru+2][Cl]` (configuration not stated), the survivor count is 1 of 6 (dose: 60.0 mg/kg/injection, schedule: Q01DX005 (ip), vehicle: saline); 0 of 6 under setting [1]; 0 of 6 under setting [2].

Take `CCc1cccc(NC(=O)NNC(=O)c2ccncc2)c1`: the survivor count (dose: 200.0 mg/kg/injection, schedule: Q01DX009 (ip), vehicle: Klucel (hydroxypropylcellulose) (HPC)) is 2 of 6.

`C=CC1CCC[S+]1CC(=O)OCC` (configuration not stated): the survivor count runs as follows: (dose: 100.0 mg/kg/injection, schedule: Q01DX005 (ip), vehicle: saline with Tween-80) 1 of 6; (dose: 200.0 mg/kg/injection, schedule: Q01DX005 (ip), vehicle: saline with Tween-80) 0 of 6.

In the case of `CC(C)CCC1(CCCl)C(=O)NC(=O)NC1=O`, the survivor count (dose: 200.0 mg/kg/injection, schedule: Q01DX005 (ip), vehicle: Klucel (hydroxypropylcellulose) (HPC)) is reported as 0 of 6.

As to `CCOC(=O)/C(C(=N)c1nc(C)c(C(=O)OCC)c(C(N)=O)n1)=C(/C)O`, the survivor count (dose: 50.0 mg/kg/injection, schedule: Q01DX005 (ip), vehicle: Klucel (hydroxypropylcellulose) (HPC)) is reported as 5 of 6.

As to `C[CH2][Sn]([CH2]C)([CH2]C(=O)OC)[CH2]C(=O)OC`, the T/C was 131 % of control (dose: 2.7 mg/kg/injection, schedule: Q03HX015 (ip), vehicle: saline with Tween-80); 141 % of control (dose: 4.0 mg/kg/injection, schedule: Q03HX015 (ip), vehicle: saline with Tween-80); 144 % of control (dose: 6.0 mg/kg/injection, schedule: Q03HX015 (ip), vehicle: saline with Tween-80); 136 % of control (dose: 8.0 mg/kg/injection, schedule: Q01DX005 (ip), vehicle: saline with Tween-80); 144 % of control (dose: 12.0 mg/kg/injection, schedule: Q01DX005 (ip), vehicle: saline with Tween-80); 145 [7 of 10 alive] and 147 % of control [9 of 10 alive] (dose: 13.3 mg/kg/injection, schedule: Q03HX015 (ip), vehicle: saline with Tween-80). Moreover, the T/C under setting [3] was 144 % of control [8 of 10 alive] and the T/C under setting [4] is 149 % of control. Moreover, the survivor count (dose: 20.0 mg/kg/injection, schedule: Q03HX015 (ip), vehicle: saline with Tween-80) was 0 of 10 and 2 of 10; the survivor count (dose: 25.0 mg/kg/injection, schedule: Q01DX009 (ip), vehicle: saline with Tween-80) was 1 of 6; the survivor count under setting [3] was 3 of 10; the survivor count (dose: 30.0 mg/kg/injection, schedule: Q03HX015 (ip), vehicle: saline with Tween-80) was 0 of 10; the survivor count (dose: 40.0 mg/kg/injection, schedule: Q01DX005 (ip), vehicle: saline with Tween-80) is reported as 0 of 10; the survivor count (dose: 45.0 mg/kg/injection, schedule: Q03HX015 (ip), vehicle: saline with Tween-80) is reported as 0 of 10. The survivor count under setting [4] was 0 of 6; the survivor count (dose: 60.0 mg/kg/injection, schedule: Q01DX005 (ip), vehicle: saline with Tween-80) was 0 of 10; the survivor count (dose: 90.0 mg/kg/injection, schedule: Q01DX005 (ip), vehicle: saline with Tween-80) is reported as 0 of 10; the survivor count (dose: 100.0 mg/kg/injection, schedule: Q01DX009 (ip), vehicle: saline with Tween-80) is on record as 0 of 6; the survivor count (dose: 135.0 mg/kg/injection, schedule: Q01DX005 (ip), vehicle: saline with Tween-80) is given as 0 of 10; the survivor count (dose: 200.0 mg/kg/injection, schedule: Q01DX009 (ip), vehicle: saline with Tween-80) is given as 0 of 6.

In the case of `NC(=S)N/N=C/c1cn(-c2ccc([N+](=O)[O-])cc2)cn1`, the survivor count (dose: 100.0 mg/kg/injection, schedule: Q04DX003 (ip), vehicle: Klucel (hydroxypropylcellulose) (HPC)) is given as 2 of 6; the survivor count (dose: 200.0 mg/kg/injection, schedule: Q04DX003 (ip), vehicle: Klucel (hydroxypropylcellulose) (HPC)) was 0 of 6; the survivor count (dose: 400.0 mg/kg/injection, schedule: Q04DX003 (ip), vehicle: Klucel (hydroxypropylcellulose) (HPC)) is listed as 0 of 6.

For `CCCCOc1ccc(C(=O)N/N=C(\C)[C@]2(O)Cc3c(O)c4c(c(O)c3[C@@H](OC3CC(N)C(O)C(C)O3)C2)C(=O)c2c(OC)cccc2C4=O)cc1` (some centres not stated), the T/C was 143 % of control (dose: 0.25 mg/kg/injection, schedule: Q01DX009 (ip), vehicle: water, evaluated on day 30); 145 % of control (dose: 0.25 mg/kg/injection, schedule: Q01DX009 (ip), vehicle: water, evaluated on day 45); 135 % of control (dose: 2.5 mg/kg/injection, schedule: Q01DX001 (ip), vehicle: water); 127 % of control (dose: 4.0 mg/kg/injection, schedule: Q01DX009 (ip), vehicle: water, evaluated on day 30); 137 % of control (dose: 4.0 mg/kg/injection, schedule: Q01DX009 (ip), vehicle: water, evaluated on day 45); 135 % of control (dose: 10.0 mg/kg/injection, schedule: Q01DX001 (ip), vehicle: water). In addition, the survivor count was 6 of 6 (2×) (dose: 8.0 mg/kg/injection, schedule: Q01DX009 (ip), vehicle: water); 4 of 6 (dose: 16.0 mg/kg/injection, schedule: Q01DX009 (ip), vehicle: water); 5 of 6 (dose: 40.0 mg/kg/injection, schedule: Q01DX001 (ip), vehicle: water); 2 of 6 (dose: 80.0 mg/kg/injection, schedule: Q01DX001 (ip), vehicle: water).

On to `CC(N)=S=O`, for which the survivor count is, setting by setting: under setting [1], 3 of 6; under setting [2], 0 of 6.

With `C[C@@H](CN1CC(=O)NC(=O)C1)N1CC(=O)NC(=O)C1`, the T/C by setting is: (dose: 2.0 mg/kg/injection, schedule: Q01DX009 (ip), vehicle: Klucel (hydroxypropylcellulose) (HPC)) 143 % of control; (dose: 12.5 mg/kg/injection, schedule: Q01DX009 (ip), vehicle: Klucel (hydroxypropylcellulose) (HPC)) 147 and 148 % of control [4 of 6 alive]; (dose: 16.0 mg/kg/injection, schedule: Q01DX005 (ip), vehicle: suspension in saline) 128 % of control; (dose: 32.0 mg/kg/injection, schedule: Q01DX005 (ip), vehicle: suspension in saline) 134 % of control; (dose: 37.5 mg/kg/injection, schedule: Q04DX003 (ip), vehicle: saline) 130 % of control; (dose: 64.0 mg/kg/injection, schedule: Q01DX005 (ip), vehicle: suspension in saline) 137 % of control. Moreover, the T/C reads like this: (dose: 64.0 mg/kg/injection, schedule: Q01DX005 (iv), vehicle: suspension in saline) 133 % of control; (dose: 75.0 mg/kg/injection, schedule: Q04DX003 (ip), vehicle: saline) 127 % of control; (dose: 100.0 mg/kg/injection, schedule: Q01DX009 (ip), vehicle: Klucel (hydroxypropylcellulose) (HPC)) 148 % of control; (dose: 128.0 mg/kg/injection, schedule: Q01DX005 (iv), vehicle: suspension in saline) 130 and 144 % of control; (dose: 150.0 mg/kg/injection, schedule: Q04DX003 (ip), vehicle: saline) 133 % of control; (dose: 256.0 mg/kg/injection, schedule: Q01DX009 (ip), vehicle: Klucel (hydroxypropylcellulose) (HPC)) 135 % of control. The T/C (dose: 300.0 mg/kg/injection, schedule: Q04DX003 (ip), vehicle: saline) is 137 % of control and the T/C (dose: 1024.0 mg/kg/injection, schedule: Q01DX001 (ip), vehicle: Klucel (hydroxypropylcellulose) (HPC)) is 138 % of control. For the same molecule, the survivor count by setting is: (dose: 25.0 mg/kg/injection, schedule: Q01DX009 (ip), vehicle: Klucel (hydroxypropylcellulose) (HPC)) 1 of 6; (dose: 400.0 mg/kg/injection, schedule: Q01DX009 (ip), vehicle: Klucel (hydroxypropylcellulose) (HPC)) 6 of 6; (dose: 512.0 mg/kg/injection, schedule: Q01DX009 (ip), vehicle: Klucel (hydroxypropylcellulose) (HPC)) 6 of 6; (dose: 800.0 mg/kg/injection, schedule: Q01DX009 (ip), vehicle: Klucel (hydroxypropylcellulose) (HPC)) 6 of 6; (dose: 1600.0 mg/kg/injection, schedule: Q01DX009 (ip), vehicle: Klucel (hydroxypropylcellulose) (HPC)) 1 of 6 and 2 of 6.

(Values after PubChem BioAssay AID330 (DTP/NCI, 2004).)
